Source: paper doi:10.1101/2021.10.15.464621
These are yes or no findings as the source states them, for the method shown. Where a sequence is shown, tags or fusion partners need not be part of it.

Experiments:
[1] = biological target: T1, polyphosphate kinase PPK, T25 fusion from plasmid pPPK12 (pKNT25) (E. coli MG1655) (UniProt P0A7B1); experiment: two-hybrid
T1 sequence: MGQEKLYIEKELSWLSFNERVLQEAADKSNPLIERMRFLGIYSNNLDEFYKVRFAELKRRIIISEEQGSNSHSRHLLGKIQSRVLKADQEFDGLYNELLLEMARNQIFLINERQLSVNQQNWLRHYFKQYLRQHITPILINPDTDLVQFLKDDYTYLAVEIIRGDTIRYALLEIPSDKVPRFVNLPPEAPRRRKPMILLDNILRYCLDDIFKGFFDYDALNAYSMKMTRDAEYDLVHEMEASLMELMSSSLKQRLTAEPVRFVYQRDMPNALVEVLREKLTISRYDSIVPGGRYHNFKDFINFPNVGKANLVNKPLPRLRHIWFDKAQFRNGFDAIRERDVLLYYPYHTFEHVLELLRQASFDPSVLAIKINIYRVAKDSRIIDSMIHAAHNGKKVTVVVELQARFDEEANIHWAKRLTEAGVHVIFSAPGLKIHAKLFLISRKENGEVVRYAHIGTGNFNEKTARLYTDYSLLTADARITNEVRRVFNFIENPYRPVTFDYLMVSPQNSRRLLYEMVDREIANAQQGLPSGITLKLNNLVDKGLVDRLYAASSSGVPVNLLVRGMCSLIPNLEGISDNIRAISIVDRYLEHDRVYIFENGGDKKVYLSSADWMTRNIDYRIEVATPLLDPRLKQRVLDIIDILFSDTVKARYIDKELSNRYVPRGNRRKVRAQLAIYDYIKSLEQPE

[2] = biological target: T2, polyphosphate kinase PPK, T25 fusion from plasmid pPPK13 (pKT25) (E. coli MG1655) (UniProt P0A7B1); experiment: two-hybrid
T2 sequence: T1 sequence

B1: nitrogen phosphotransferase regulator PtsN (EIIA^Ntr), T18 fusion from plasmid pPTSN5 (protein, UniProt P69829 1-163)
chain: MTNNDTTLQLSSVLNRECTRSRVHCQSKKRALEIISELAAKQLSLPPQVVFEAILTREKMGSTGIGNGIAIPHGKLEEDTLRAVGVFVQLETPIAFDAIDNQPVDLLFALLVPADQTKTHLHTLSLVAKRLADKTICRRLRAAQSDEELYQIITDTEGTPDEA
binding [1]: no binding
binding [2]: no binding
